The results in this text go back to patent publication US20160311887A1.

No constants are given. Whether binding was seen depends on the method and setting. A result given as binding can be weak or reduced; the word gives no strength.

For experiment [1], the target named is activated Protein C (APC) (human). Briefly: bacterial lysate screen, residual APC activity lower than or equal to that with P2KP1′K PCI.
Experiment [2] shares this target. Briefly: bacterial lysate screen, retested in triplicate; APC inhibition better than or equal to P2KP1′K PCI.

B1: PCI variant E7 (P4 S, P2 H, P1′ R) (protein)
chain: APSSRRDFTFDLYRALASAAPSQNIFFSPVSISMSLAMLSLGAGSSTKMQILEGLGLNLQKSSEKELHRGFQQLLQELNQPRDGFQLSLGNALFTDLVVDLQDTFVSAMKTLYLADTFPTNFRDSAGAMKQINDYVAKQTKGKIVDLLKNLDSNAVVIMVNYIFFKAKWETSFNHKGTQEQDFYVTSETVVRVPMMSREDQYHYLLDRNLSCRVVGVPYQGNATALFILPSEGKMQQVENGLSEKTLRKWLKMFKKRQLELYLPKFSIEGSYQLEKVLPSLGISNVFTSHADLSGISNHSNIQVSEMVHKAVVEVDESGTRAAAATGTISTHRRARLNSQRLVFNRPFLMFIVDNNILFLGKVNRP
As to B1, the binding entry in experiment [1] is listed as “binds”.

B2: PCI variant 4.F7 (P4 F, P2 V, P1′ K) (protein)
chain: APSSRRDFTFDLYRALASAAPSQNIFFSPVSISMSLAMLSLGAGSSTKMQILEGLGLNLQKSSEKELHRGFQQLLQELNQPRDGFQLSLGNALFTDLVVDLQDTFVSAMKTLYLADTFPTNFRDSAGAMKQINDYVAKQTKGKIVDLLKNLDSNAVVIMVNYIFFKAKWETSFNHKGTQEQDFYVTSETVVRVPMMSREDQYHYLLDRNLSCRVVGVPYQGNATALFILPSEGKMQQVENGLSEKTLRKWLKMFKKRQLELYLPKFSIEGSYQLEKVLPSLGISNVFTSHADLSGISNHSNIQVSEMVHKAVVEVDESGTRAAAATGTIFTVRKARLNSQRLVFNRPFLMFIVDNNILFLGKVNRP
As to B2, the binding entry in experiment [2] is “binds”.

B3: PCI variant 3.G11 (P4 W, P2 W, P1′ N) (protein)
chain: APSSRRDFTFDLYRALASAAPSQNIFFSPVSISMSLAMLSLGAGSSTKMQILEGLGLNLQKSSEKELHRGFQQLLQELNQPRDGFQLSLGNALFTDLVVDLQDTFVSAMKTLYLADTFPTNFRDSAGAMKQINDYVAKQTKGKIVDLLKNLDSNAVVIMVNYIFFKAKWETSFNHKGTQEQDFYVTSETVVRVPMMSREDQYHYLLDRNLSCRVVGVPYQGNATALFILPSEGKMQQVENGLSEKTLRKWLKMFKKRQLELYLPKFSIEGSYQLEKVLPSLGISNVFTSHADLSGISNHSNIQVSEMVHKAVVEVDESGTRAAAATGTIWTWRNARLNSQRLVFNRPFLMFIVDNNILFLGKVNRP
Turning to B3, the binding result in experiment [2] is given as “binds”.

B4: PCI variant 3.E8 (P4 F, P2 R, P1′ K) (protein)
chain: APSSRRDFTFDLYRALASAAPSQNIFFSPVSISMSLAMLSLGAGSSTKMQILEGLGLNLQKSSEKELHRGFQQLLQELNQPRDGFQLSLGNALFTDLVVDLQDTFVSAMKTLYLADTFPTNFRDSAGAMKQINDYVAKQTKGKIVDLLKNLDSNAVVIMVNYIFFKAKWETSFNHKGTQEQDFYVTSETVVRVPMMSREDQYHYLLDRNLSCRVVGVPYQGNATALFILPSEGKMQQVENGLSEKTLRKWLKMFKKRQLELYLPKFSIEGSYQLEKVLPSLGISNVFTSHADLSGISNHSNIQVSEMVHKAVVEVDESGTRAAAATGTIFTRRKARLNSQRLVFNRPFLMFIVDNNILFLGKVNRP
B4: the binding entry in experiment [2] was “binds”.

B5: PCI variant 5.E7 (P4 L, P2 R, P1′ I) (protein)
chain: APSSRRDFTFDLYRALASAAPSQNIFFSPVSISMSLAMLSLGAGSSTKMQILEGLGLNLQKSSEKELHRGFQQLLQELNQPRDGFQLSLGNALFTDLVVDLQDTFVSAMKTLYLADTFPTNFRDSAGAMKQINDYVAKQTKGKIVDLLKNLDSNAVVIMVNYIFFKAKWETSFNHKGTQEQDFYVTSETVVRVPMMSREDQYHYLLDRNLSCRVVGVPYQGNATALFILPSEGKMQQVENGLSEKTLRKWLKMFKKRQLELYLPKFSIEGSYQLEKVLPSLGISNVFTSHADLSGISNHSNIQVSEMVHKAVVEVDESGTRAAAATGTILTRRIARLNSQRLVFNRPFLMFIVDNNILFLGKVNRP
Regarding B5, the binding result in experiment [2] is given as “binds”.

B6: PCI variant 3.C3 (P4 V, P2 R, P1′ I) (protein)
chain: APSSRRDFTFDLYRALASAAPSQNIFFSPVSISMSLAMLSLGAGSSTKMQILEGLGLNLQKSSEKELHRGFQQLLQELNQPRDGFQLSLGNALFTDLVVDLQDTFVSAMKTLYLADTFPTNFRDSAGAMKQINDYVAKQTKGKIVDLLKNLDSNAVVIMVNYIFFKAKWETSFNHKGTQEQDFYVTSETVVRVPMMSREDQYHYLLDRNLSCRVVGVPYQGNATALFILPSEGKMQQVENGLSEKTLRKWLKMFKKRQLELYLPKFSIEGSYQLEKVLPSLGISNVFTSHADLSGISNHSNIQVSEMVHKAVVEVDESGTRAAAATGTIVTRRIARLNSQRLVFNRPFLMFIVDNNILFLGKVNRP
As for B6, the binding result in experiment [2] is “binds”.

B7: PCI variant E10 (P4 R, P2 Q, P1′ V) (protein)
chain: APSSRRDFTFDLYRALASAAPSQNIFFSPVSISMSLAMLSLGAGSSTKMQILEGLGLNLQKSSEKELHRGFQQLLQELNQPRDGFQLSLGNALFTDLVVDLQDTFVSAMKTLYLADTFPTNFRDSAGAMKQINDYVAKQTKGKIVDLLKNLDSNAVVIMVNYIFFKAKWETSFNHKGTQEQDFYVTSETVVRVPMMSREDQYHYLLDRNLSCRVVGVPYQGNATALFILPSEGKMQQVENGLSEKTLRKWLKMFKKRQLELYLPKFSIEGSYQLEKVLPSLGISNVFTSHADLSGISNHSNIQVSEMVHKAVVEVDESGTRAAAATGTIRTQRVARLNSQRLVFNRPFLMFIVDNNILFLGKVNRP
On to B7, for which the binding result in experiment [1] is “binds”.

B8: PCI variant 4.F10 (P4 R, P2 R, P1′ I) (protein)
chain: APSSRRDFTFDLYRALASAAPSQNIFFSPVSISMSLAMLSLGAGSSTKMQILEGLGLNLQKSSEKELHRGFQQLLQELNQPRDGFQLSLGNALFTDLVVDLQDTFVSAMKTLYLADTFPTNFRDSAGAMKQINDYVAKQTKGKIVDLLKNLDSNAVVIMVNYIFFKAKWETSFNHKGTQEQDFYVTSETVVRVPMMSREDQYHYLLDRNLSCRVVGVPYQGNATALFILPSEGKMQQVENGLSEKTLRKWLKMFKKRQLELYLPKFSIEGSYQLEKVLPSLGISNVFTSHADLSGISNHSNIQVSEMVHKAVVEVDESGTRAAAATGTIRTRRIARLNSQRLVFNRPFLMFIVDNNILFLGKVNRP
In the case of B8, the binding result in experiment [2] is on record as “binds”.

B9: PCI variant 3.B11 (P4 F, P2 F, P1′ R) (protein)
chain: APSSRRDFTFDLYRALASAAPSQNIFFSPVSISMSLAMLSLGAGSSTKMQILEGLGLNLQKSSEKELHRGFQQLLQELNQPRDGFQLSLGNALFTDLVVDLQDTFVSAMKTLYLADTFPTNFRDSAGAMKQINDYVAKQTKGKIVDLLKNLDSNAVVIMVNYIFFKAKWETSFNHKGTQEQDFYVTSETVVRVPMMSREDQYHYLLDRNLSCRVVGVPYQGNATALFILPSEGKMQQVENGLSEKTLRKWLKMFKKRQLELYLPKFSIEGSYQLEKVLPSLGISNVFTSHADLSGISNHSNIQVSEMVHKAVVEVDESGTRAAAATGTIFTFRRARLNSQRLVFNRPFLMFIVDNNILFLGKVNRP
Consider B9, for which the binding entry in experiment [2] is “binds”.

B10: PCI variant 3.G10 (P4 C, P2 L, P1′ K) (protein)
chain: APSSRRDFTFDLYRALASAAPSQNIFFSPVSISMSLAMLSLGAGSSTKMQILEGLGLNLQKSSEKELHRGFQQLLQELNQPRDGFQLSLGNALFTDLVVDLQDTFVSAMKTLYLADTFPTNFRDSAGAMKQINDYVAKQTKGKIVDLLKNLDSNAVVIMVNYIFFKAKWETSFNHKGTQEQDFYVTSETVVRVPMMSREDQYHYLLDRNLSCRVVGVPYQGNATALFILPSEGKMQQVENGLSEKTLRKWLKMFKKRQLELYLPKFSIEGSYQLEKVLPSLGISNVFTSHADLSGISNHSNIQVSEMVHKAVVEVDESGTRAAAATGTICTLRKARLNSQRLVFNRPFLMFIVDNNILFLGKVNRP
Consider B10, for which the binding entry in experiment [2] is “binds”.

B11: PCI variant 5.D2 (P4 T, P2 R, P1′ V) (protein)
chain: APSSRRDFTFDLYRALASAAPSQNIFFSPVSISMSLAMLSLGAGSSTKMQILEGLGLNLQKSSEKELHRGFQQLLQELNQPRDGFQLSLGNALFTDLVVDLQDTFVSAMKTLYLADTFPTNFRDSAGAMKQINDYVAKQTKGKIVDLLKNLDSNAVVIMVNYIFFKAKWETSFNHKGTQEQDFYVTSETVVRVPMMSREDQYHYLLDRNLSCRVVGVPYQGNATALFILPSEGKMQQVENGLSEKTLRKWLKMFKKRQLELYLPKFSIEGSYQLEKVLPSLGISNVFTSHADLSGISNHSNIQVSEMVHKAVVEVDESGTRAAAATGTITTRRVARLNSQRLVFNRPFLMFIVDNNILFLGKVNRP
In the case of B11, the binding result in experiment [2] was “binds”.

B12: PCI variant 4.E4 (P4 K, P2 D, P1′ M) (protein)
chain: APSSRRDFTFDLYRALASAAPSQNIFFSPVSISMSLAMLSLGAGSSTKMQILEGLGLNLQKSSEKELHRGFQQLLQELNQPRDGFQLSLGNALFTDLVVDLQDTFVSAMKTLYLADTFPTNFRDSAGAMKQINDYVAKQTKGKIVDLLKNLDSNAVVIMVNYIFFKAKWETSFNHKGTQEQDFYVTSETVVRVPMMSREDQYHYLLDRNLSCRVVGVPYQGNATALFILPSEGKMQQVENGLSEKTLRKWLKMFKKRQLELYLPKFSIEGSYQLEKVLPSLGISNVFTSHADLSGISNHSNIQVSEMVHKAVVEVDESGTRAAAATGTIKTDRMARLNSQRLVFNRPFLMFIVDNNILFLGKVNRP
With B12, the binding result in experiment [2] was “binds”.

B13: PCI variant 4.H7 (P4 G, P2 I, P1′ R) (protein)
chain: APSSRRDFTFDLYRALASAAPSQNIFFSPVSISMSLAMLSLGAGSSTKMQILEGLGLNLQKSSEKELHRGFQQLLQELNQPRDGFQLSLGNALFTDLVVDLQDTFVSAMKTLYLADTFPTNFRDSAGAMKQINDYVAKQTKGKIVDLLKNLDSNAVVIMVNYIFFKAKWETSFNHKGTQEQDFYVTSETVVRVPMMSREDQYHYLLDRNLSCRVVGVPYQGNATALFILPSEGKMQQVENGLSEKTLRKWLKMFKKRQLELYLPKFSIEGSYQLEKVLPSLGISNVFTSHADLSGISNHSNIQVSEMVHKAVVEVDESGTRAAAATGTIGTIRRARLNSQRLVFNRPFLMFIVDNNILFLGKVNRP
With B13, the binding result in experiment [2] is reported as “binds”.

B14: PCI variant E11 (P4 T, P2 L, P1′ Y) (protein)
chain: APSSRRDFTFDLYRALASAAPSQNIFFSPVSISMSLAMLSLGAGSSTKMQILEGLGLNLQKSSEKELHRGFQQLLQELNQPRDGFQLSLGNALFTDLVVDLQDTFVSAMKTLYLADTFPTNFRDSAGAMKQINDYVAKQTKGKIVDLLKNLDSNAVVIMVNYIFFKAKWETSFNHKGTQEQDFYVTSETVVRVPMMSREDQYHYLLDRNLSCRVVGVPYQGNATALFILPSEGKMQQVENGLSEKTLRKWLKMFKKRQLELYLPKFSIEGSYQLEKVLPSLGISNVFTSHADLSGISNHSNIQVSEMVHKAVVEVDESGTRAAAATGTITTLRYARLNSQRLVFNRPFLMFIVDNNILFLGKVNRP
Turning to B14, the binding result in experiment [1] is on record as “binds”.
